Each number is a percent effect as filed. The controls that fix the scale are not given in the record; negative values are as filed. This is an unselected part of the compounds tested. Two or more numbers in one place are separate tests of the same structure; such repeats can differ widely. A dash means the value is not listed here; it may have been measured.

Chains of the proteins cited; added tags and fusions are not shown. Residues count along the entry.
UniProt P9WPC5, whole entry: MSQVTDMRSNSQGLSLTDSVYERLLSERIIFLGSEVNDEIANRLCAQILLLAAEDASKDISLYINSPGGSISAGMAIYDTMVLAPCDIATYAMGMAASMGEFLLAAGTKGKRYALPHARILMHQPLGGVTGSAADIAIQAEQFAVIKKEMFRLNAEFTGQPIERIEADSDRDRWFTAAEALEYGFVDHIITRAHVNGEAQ
UniProt P9WPC3, whole entry partner: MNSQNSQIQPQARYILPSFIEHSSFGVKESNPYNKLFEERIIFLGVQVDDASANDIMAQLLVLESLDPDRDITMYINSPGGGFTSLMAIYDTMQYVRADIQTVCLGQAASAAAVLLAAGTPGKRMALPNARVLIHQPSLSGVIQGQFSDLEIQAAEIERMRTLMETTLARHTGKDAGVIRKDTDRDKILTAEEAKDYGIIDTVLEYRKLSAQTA
UniProt P9WNZ1, whole entry: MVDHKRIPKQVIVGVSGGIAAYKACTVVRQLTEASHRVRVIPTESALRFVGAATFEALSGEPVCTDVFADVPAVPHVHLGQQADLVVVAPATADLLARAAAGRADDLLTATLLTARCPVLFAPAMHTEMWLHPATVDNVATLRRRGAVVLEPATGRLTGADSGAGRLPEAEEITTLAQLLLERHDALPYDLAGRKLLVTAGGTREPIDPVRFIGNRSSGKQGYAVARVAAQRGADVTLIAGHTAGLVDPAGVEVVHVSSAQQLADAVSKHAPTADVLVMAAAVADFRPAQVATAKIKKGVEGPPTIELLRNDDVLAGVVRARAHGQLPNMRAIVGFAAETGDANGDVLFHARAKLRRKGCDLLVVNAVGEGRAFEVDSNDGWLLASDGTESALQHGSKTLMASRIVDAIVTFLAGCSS
UniProt Q8IDJ8, 1-583: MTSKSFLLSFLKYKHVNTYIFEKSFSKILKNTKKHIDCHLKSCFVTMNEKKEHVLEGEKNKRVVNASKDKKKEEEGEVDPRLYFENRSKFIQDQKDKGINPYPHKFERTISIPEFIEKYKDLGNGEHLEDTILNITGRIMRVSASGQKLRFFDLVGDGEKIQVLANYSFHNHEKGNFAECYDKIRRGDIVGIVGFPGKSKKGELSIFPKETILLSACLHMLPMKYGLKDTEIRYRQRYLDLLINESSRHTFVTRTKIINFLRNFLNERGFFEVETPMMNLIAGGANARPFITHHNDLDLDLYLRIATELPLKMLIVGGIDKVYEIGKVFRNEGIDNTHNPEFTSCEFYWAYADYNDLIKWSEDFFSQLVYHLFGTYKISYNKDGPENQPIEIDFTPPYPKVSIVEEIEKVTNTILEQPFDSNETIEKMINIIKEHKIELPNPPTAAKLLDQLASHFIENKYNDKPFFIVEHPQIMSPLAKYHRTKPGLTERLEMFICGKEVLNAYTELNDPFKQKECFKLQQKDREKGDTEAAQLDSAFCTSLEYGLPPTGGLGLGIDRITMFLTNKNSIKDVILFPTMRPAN

ClpP1P2: 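ClpP1P2, Mycobacterium tuberculosis (UniProt P9WPC5 and UniProt P9WPC3). Protease assay of ClpP1P2, read by the AMC dye that it sets free. Compounds at 50 µM. Higher reads as stronger inhibition, judged from the few compounds that gave an IC50. Most other retested compounds had strongly negative values. About 69,000 compounds were tested under these conditions; 0.015% (about 10) showed 50% or more at least once.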
CoaBC: 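Coenzyme A biosynthesis protein CoaBC, Mycobacterium tuberculosis (UniProt P9WNZ1). Enzyme assay of CoaBC with a phosphate dye (Biomol Green) read at 650 nm. Tested at 30 µM. Direction is inferred from only a few compounds that gave an IC50; most scored high, so higher reads as stronger inhibition. Most strong results did not repeat in a second test. Size under these conditions: about 67,000 compounds, about 40 of them at 50% or above in at least one test.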
PfKRS1: 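Lysine-tRNA ligase, Plasmodium falciparum 3D7 (UniProt Q8IDJ8). Enzyme assay of the cytosolic lysyl-tRNA synthetase in 384-well plates, read by luminescence. Compounds at 30 µM. Direction is inferred from only a few compounds that gave an IC50; most scored high, so higher reads as stronger inhibition. Of about 69,000 compounds tested this way, about 49 (0.071%) reached 50% or more in at least one test.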
Leishmania in macrophages: 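Cell assay of Leishmania donovani living inside macrophages; the read-out is not stated. Concentration: 30 µM. Direction is inferred from retests: higher values go with stronger inhibition. Size under these conditions: about 69,000 compounds, about 1,000 of them at 50% or above in at least one test.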

| compound | ClpP1P2 | CoaBC | PfKRS1 | Leishmania in macrophages |
|---|---|---|---|---|
| `CC(C)(C)C1CCC(O)(CNC(=O)CCS(C)(=O)=O)CC1` (stereo not shown) | -3.663 | 8.036 | 2.49 | 15.14 |
| `CNC(=O)c1[nH]nc2c1CN(c1cc(C3CCCNC3)nc(C)n1)CC2` (stereo not shown) | -4.03 | 2.676 | 1.124 | 27.62 |
| `CN1CCOC(CNCc2nc(-c3cccnc3)no2)C1` (stereo not shown) | 0.2531 | 19.65 | 0.116 | 22.95 |
| `[H][C@@]12CCN(C[C@@H]1c1cc(-c3cccs3)nn1C)[C@@H](CNC(C)=O)C2` | - | - | - | 7.212 |
| `O=C(O)C(F)(F)F.[H][C@@]12CCN(c3ncc(F)cn3)C[C@]1(COc1nccc(C)n1)CCO2` | - | - | - | 22.41 |
| `O=C(C1CC=CC1)N1CCC2(CCN(Cc3ccccn3)C2=O)C1` (stereo not shown) | -1.195 | 4.034 | 3.827 | - |
| `Cc1cc(C)c2ncn(CCOCCO)c(=O)c2c1` | 0.6864 | - | 1.988 | 7.476 |
| `N#Cc1cc(NS(=O)(=O)c2cc(C(=O)O)cc(Cl)c2Cl)ccc1F` | 2.413 | 5.342 | -0.8403 | -23.56 |
| `CCOC(=O)c1n[nH]cc1-c1cncn1CCCn1nc(C)cc1C` | -8.014 | 1.36 | 2.477 | - |
| `CN(Cc1ccncc1)C1COC2(CCN(Cc3nccn3C)CC2)C1.O=C(O)C(F)(F)F.O=C(O)C(F)(F)F.O=C(O)C(F)(F)F` (stereo not shown) | - | - | - | 19.8 |
| `Cn1cnnc1CNC(=O)CCCOc1ccccc1Cl` | -4.526 | 1.096 | 2.478 | 0.5575 |
| `[H][C@]12CC[C@]([H])(CN(S(C)(=O)=O)C1)N(Cc1ccc3nsnc3c1)C2` | - | - | - | -2.21 |
| `O=C(NC[C@]12COC[C@H]1CN(Cc1ccncc1)C2)c1ccco1` | 6.311 | -0.5181 | 0.846 | - |
| `Cc1nc(CNC(=O)CCCc2cccs2)no1` | -2.141 | -0.8065 | 7.93 | 8.254 |
| `CCn1cc(CN2CCc3nc(-c4ccccn4)nc(O)c3C2)cn1` | -1.238 | -0.9804 | 3.863 | 11.91 |
| `COCCN(C(=O)c1ccccn1)c1nc2c(s1)CCc1c-2cnn1C` | 5.723 | 4.657 | 52.42 | -6.971 |
| `O=C(O)C(F)(F)F.[H][C@@]12C[C@@H](c3nc(C)no3)CN(Cc3sccc3C)[C@]1([H])CCO2` | - | - | - | 3.848 |
| `CC(=O)NC(CC(=O)Nc1ccc(C)cn1)c1ccccc1` (stereo not shown) | -23.58 | 9.759 | -1.489 | 13.68 |
| `CC(=O)Nc1nc(CN2CCCC2Cn2cncn2)cs1` (stereo not shown) | 8.958 | 1.928 | -5.53 | 15.53 |
| `Cc1ccc(CC(=O)N2CCN(C(C)c3ccccc3F)CC2)cn1` (stereo not shown) | 12.74 | 10.33 | 4.469 | 3.269 |
| `O=C(O)C(F)(F)F.[H][C@@]12OCCN(Cc3ccc(F)c(F)c3)[C@@]1([H])CC[C@H]2OC` | - | - | - | 14.18 |
| `Cc1cccc(OCCC(=O)N2CCCN(CC(N)=O)CC2)c1C` | -1.357 | -1.799 | 10.49 | 26.22 |
| `O=C1CO[C@@H]2CN(Cc3ccncc3)C[C@H]2N1Cc1ccncc1` | 2.702 | -8.403 | 6.192 | - |
| `Cn1cnnc1C1CCCN(C(=O)c2ccccc2Cl)C1` (stereo not shown) | 11.66 | 3.077 | 4.988 | 19.39 |
| `Cc1cnc(N2C[C@@H]3[C@@H](C2)OCC(=O)N3CC(C)C)nc1` | -1.939 | - | -4.149 | - |
| `Cc1cc(N2CCN(C(=O)c3cccnc3)CC2)nc(C)n1` | -0.8075 | -6.748 | 1.516 | 3.018 |
| `N#Cc1ccccc1OCCN1CCCC1Cn1cccn1` (stereo not shown) | -0.4175 | 4.152 | 7.273 | 18.68 |
| `O=C(C1CCOCC1)N1CCc2onc(COc3cccnc3)c2C1.O=C(O)C(F)(F)F` | - | - | - | 8.457 |
| `Cc1cccc(C)c1OC1CN(Cc2cnc(N3CCOCC3)nc2)C1` | -6.441 | 5.925 | 3.572 | 20.29 |
| `[H][C@@]12CS(=O)(=O)C[C@]1([H])N(Cc1ncc[nH]1)CCN2Cc1cccnc1` | - | - | - | 18.37 |
| `CN(Cc1noc(C(C)(C)C)n1)C1CCCN(c2cccnn2)C1` (stereo not shown) | 10.7 | 2.452 | -3.186 | -49.4 |
| `Cc1cc2nc(CO[C@H]3CN(C4CCC4)C[C@H]3F)[nH]c2cc1C` | -11.84 | 14.35 | -0.9079 | 3.508 |
| `Cc1ncc(-c2ccnc(N[C@@H](C)CO)n2)c(C2CCCCC2)n1` | -10.08 | -1.807 | -2.527 | -4.144 & 6.906 |
| `CNC(=O)Cc1noc(Cc2cccc(Cl)c2)n1` | -1.382 | 15.9 | 2.857 | 18 |
| `CCc1ccc(CN(C)c2cc(COC)nc3ccnn23)cc1` | -20.26 | 6.905 | 7.099 | 41.82 |
| `Cn1cc2c(n1)C(CNC1CCOCC1)OCC2` (stereo not shown) | 2.751 | 1.025 | 8.949 | - |
| `CC(=O)N1CCCCC12CCCN(Cc1ccco1)C2` (stereo not shown) | 0.3982 | 3.218 | 1.196 | - |
| `CC(C)N1C(=O)CC(N2CCN(c3ccc(F)cc3)CC2)C1=O` (stereo not shown) | 5.681 | -1.392 | 0.3541 | 17.32 |
| `CN1CCC(N(Cc2ccccc2F)C(=O)NCc2ccncc2)CC1` | -7.262 | -0.2445 | 1.586 | -7.988 |
| `CNC(=O)c1nnn(-c2ccccc2F)c1-c1ccccn1` | 2.45 | -4.863 | 7.775 | 1.729 & 33.24 |
| `Cc1occc1C(=O)N1CCN2C[C@H](Oc3cccnc3)C[C@H]2C1` | 6.092 | -6.157 | 7.901 | - |
| `Cc1cnc(CCNC(=O)C2CCN(S(=O)(=O)c3ccc(F)cc3)C2)s1` (stereo not shown) | 20.82 | -0.2628 | -3.671 | 33.75 |
| `CCc1ccsc1C(=O)N1CCS(=O)(=O)CC1` | 7.11 | 13.03 | 4.535 | 9.315 |
| `CNC(=O)c1nc(CC(=O)Nc2ccc3cc[nH]c3c2)no1` | -7.372 | -19.01 | 2.854 | 36.43 |
| `CN(C)c1ccc(NC(=O)N2CCc3sccc3C2)cn1` | 0.4971 | 5.847 | 2.062 | -24.14 |
| `c1cncc(COCC2CN(Cc3ccsc3)Cc3ccnn3C2)c1` (stereo not shown) | -13.04 | 7.477 | -0.3936 | -4.421 |
| `CC(C)Oc1ccc(C(=O)N2CCCC2c2cnn(C)c2)cn1` (stereo not shown) | -30.2 | 2.682 | -0.9657 | -4.926 |
| `CCn1ccnc1CN1CCCC(N(C)CCc2ccccc2)C1` (stereo not shown) | -9.373 | 1.809 | 0.9928 | 16.72 |
| `O=C(O)C(F)(F)F.[H][C@]12CCN(Cc3c(C)noc3C)[C@@]1([H])CC[C@H](COCC1CC1)O2` | - | - | - | 7.566 |
| `O=C(O)C(F)(F)F.[H][C@@]12OCCN(C(=O)c3occc3C)[C@@]1([H])CC[C@H]2OCCN(C)C` | - | - | - | -14.81 |
| `NC(=O)c1cccc(CCNCc2cnc(C3CCC3)s2)c1` | 8.382 | 7.258 | 1.654 | 4.363 |
| `CC(NCc1ccc(OCc2nccn2C)cc1)c1cccnc1` (stereo not shown) | 7.479 | -15.05 | 2.392 | -4.8 |
| `Clc1ccc(-n2nnnc2C2(NCc3ccco3)CCCCC2)cc1` | -17.71 | 3.883 | 5.087 | 7.44 |
| `NC1CCc2nc(-c3cccnc3)nc(Nc3ccc(F)cc3)c2C1` (stereo not shown) | 3.044 | 11.14 | 3.233 | - |
| `NC(=O)N1CC(OCc2cccc3ccccc23)C1` | -3.55 | -7.317 | 6.005 | 20.5 |
| `COCC(Nc1ncnc2sc(C)c(C)c12)c1ccnn1C` (stereo not shown) | -9.861 | 0.4902 | 6.475 | 12.85 |
| `CCc1ccc(CN(CC)Cc2ccc(S(=O)(=O)NC)cc2)cc1` | -7.526 | 2.008 | 5.877 | 4.708 |
| `O=C1NCC[C@]12CN(Cc1ccoc1)C[C@H]2c1ccccc1` | -4.946 | 1.141 | -4.803 | 19.24 |
| `[H][C@@]12CCN(C(C)=O)C[C@]1([H])CCN(CCc1c[nH]cn1)C(=O)C2` | - | - | - | 9.829 |
| `COc1ccccc1[C@@H]1CN(CC(=O)N2CCCCC2)C[C@H]1C(=O)O` | 6.279 | 5.325 | 3.324 | 3.464 |
| `Cc1cnc(-c2nc(O)c3c(n2)CN(C(=O)C2CCCC2)CC3)cn1` | -12.79 | 9.557 | 0.8848 | 11.47 |
| `COc1ccc(C2SCC(=O)Nc3n[nH]cc32)c(OC)c1OC` (stereo not shown) | -14.43 | 2.658 | -2.313 | -3.421 |
| `COc1ccc(-c2nc(CCNCc3ccncc3)co2)cc1` | -4.162 | 2.694 | 2.886 | -14.05 |
| `CCC(=O)NC1CCCN(c2cncc(OCc3ccccc3)n2)C1` (stereo not shown) | -91.82 | 3.883 | -2.197 | -15.36 |
| `CCOC(=O)N1CCNC(c2cccs2)C1` (stereo not shown) | 9.265 | -1.151 | -3.813 | 5.605 |
| `O=C(Nc1cnn(Cc2ccc(Cl)cc2)c1)N[C@@H]1C=C[C@H](CO)C1` | -7.912 | 5.38 | 7.881 | 28.05 |
| `CCOCc1ncn2c1CN(S(=O)(=O)c1ccc(OC)cc1)CC2` | -13.79 | 3.752 | 3.245 | -13.26 |
| `Cc1cc(C)c2c(N3CCN(C(=O)N(C)C)CC3)ncnc2n1` | 12.74 | 7.107 | 5.057 | 13.32 |
| `O=C(c1ccnnc1)N1CC[C@H]2C[C@H](c3ccncn3)O[C@@H]2C1` | 2.432 | 3.782 | 11.28 | - |

From ChEMBL document CHEMBL3988442, “University of Dundee, Small-Polar-MMV Screening Library” (2021).